Results published in the supplement of paper PMC3682954.
Several values for one entry are separate records, joined by “and”; a condition that tells them apart may be missing. Equal values may be shown once. Where a name gives a salt, the structure may show the parent alone. ± gives the standard deviation of the averaged measurements. The list shows a part of the results. Repeats are few or missing, and single values can be far off.

Test system: RAW 264.7
Assay: cell viability (MTT) relative to vehicle control; higher = more viable cells
Settings: stimulus: HMGB1 5 ug/ml, 18 h
[1] = compound concentration: 1 ug/ml

| Compound | cell viability (compound concentration: 3 uM) | cell viability [1] [%] |
| --- | --- | --- |
| CCCOc1cc(N)ccc1C(=O)OCCN(CC)CC [Propoxycaine hydrochloride] | 91.4% | – |
| NCCc1c[nH]cn1 [Histamine Dihydrochloride] | – | 103 |
| NCCc1c[nH]cn1 | 102% | – |
| NCCc1c[nH]cn1 [Histamine dihydrochloride] | 100% | – |
| Cc1cn[nH]c1 | 112% | – |
| Cc1cn[nH]c1 [4-Methylpyrazole hydrochloride] | 112% | – |
| OC[C@H]1O[C@@H](n2cnc3c(O)nc(O)nc32)[C@H](O)[C@@H]1O [Xanthosine dihydrate] | – | 96.2 |
| OCCN1CCN(CC/C=C2/c3ccccc3Sc3ccc(C(F)(F)F)cc32)CC1 [cis-(Z)-Flupenthixol dihydrochloride] | 95.5% | – |
| CC(=Cc1ccc(C(=O)O)cc1)c1ccc2c(c1)C(C)(C)CCC2(C)C | 103% | – |
| O=C(O)CCCCCCCC(=O)O | 101 ± 5.8% | – |
| O=C(O)CCCCCCCC(=O)O [Azelaic acid] | 103% | – |
| CC(=O)OCC(=O)[C@@]1(O)CC[C@H]2[C@@H]3CCC4=CC(=O)CC[C@]4(C)[C@@]3(F)[C@@H](O)C[C@@]21C [Fludrocortisone acetate] | 98.4% | – |
| CC(=O)OCC(=O)[C@@]1(O)CC[C@H]2[C@@H]3CCC4=CC(=O)CC[C@]4(C)[C@@]3(F)[C@@H](O)C[C@@]21C | 115% | – |
| COC(=O)Nc1nc2cc(C(=O)c3cccs3)ccc2[nH]1 [Nocodazole] | 63.8 ± 16% | – |
| COC(=O)Nc1nc2cc(C(=O)c3cccs3)ccc2[nH]1 | 111% | – |
| Cc1ccc(C(=O)c2ccc(CC(=O)O)n2C)cc1 [Tolmetin] | 97.2% | – |
| Cc1ccc(C(=O)c2ccc(CC(=O)O)n2C)cc1 | 108% | – |
| Cc1ccc(C(=O)c2ccc(CC(=O)O)n2C)cc1 [Tolmetin sodium salt dihydrate] | 84.4% | – |
| CCCCN(CCCC)CCCOC(=O)c1ccc(N)cc1 [Butacaine] | 89.2% | – |
| CCCCN(CCCC)CCCOC(=O)c1ccc(N)cc1 | 102% | – |
| O=C(O)CN1C(=O)c2cccc3cccc(c23)C1=O | 107% | – |
| CC[N+](C)(CC)CCOC(=O)C1c2ccccc2Oc2ccccc21 [Methantheline bromide] | 94.7% | – |
| CC(=O)OCC(=O)[C@@]1(O)CC[C@H]2[C@@H]3CCC4=CC(=O)C=C[C@]4(C)[C@@]3(Cl)[C@@H](Cl)C[C@@]21C | 107% | – |
| CCN[C@H]1CN(CCCOC)S(=O)(=O)c2sc(S(N)(=O)=O)cc21 [Brinzolamide] | 88.2% | – |
| CC(=O)OCC(=O)[C@@]1(O)CC[C@H]2[C@@H]3CCC4=CC(=O)CC[C@]4(C)[C@H]3[C@@H](O)C[C@@]21C [Cortisol acetate] | 113% | – |
| CC(=O)OCC(=O)[C@@]1(O)CC[C@H]2[C@@H]3CCC4=CC(=O)CC[C@]4(C)[C@H]3[C@@H](O)C[C@@]21C | 109% | – |
| CC(=O)OCC(=O)[C@@]1(O)CC[C@H]2[C@@H]3CCC4=CC(=O)CC[C@]4(C)[C@H]3[C@@H](O)C[C@@]21C [Hydrocortisone 21-acetate] | 107% | – |
| CN(C)CCC(c1ccc(Cl)cc1)c1ccccn1 (racemic) [(±)-Chlorpheniramine maleate] | 105% | – |

| Compound | cell viability (compound concentration: 3 uM) | cell viability [1] [%] |
| --- | --- | --- |
| CC(C)c1c(C(=O)Nc2ccccc2)c(-c2ccccc2)c(-c2ccc(F)cc2)n1CC[C@@H](O)C[C@@H](O)CC(=O)O [Atorvastatin] | 124% | – |
| CC(C)c1c(C(=O)Nc2ccccc2)c(-c2ccccc2)c(-c2ccc(F)cc2)n1CC[C@@H](O)C[C@@H](O)CC(=O)O | 121% | – |
| Cc1ncc(C[n+]2csc(CCO)c2C)c(N)n1 | 106% | – |
| C=CC(N)CCC(=O)O (stereo not given) | 102% | – |
| C=CC(N)CCC(=O)O (stereo not given) [Vigabatrin] | 88.2% | – |
| CCCCCCCCCCCCCCCC(=O)OC/C=C(C)/C=C/C=C(C)/C=C/C1=C(C)CCCC1(C)C | 99.6% | – |
| NS(=O)(=O)c1cc(C2(O)NC(=O)c3ccccc32)ccc1Cl (stereo not given) | 106% | – |
| NS(=O)(=O)c1cc(C2(O)NC(=O)c3ccccc32)ccc1Cl (stereo not given) [Chlorthalidone] | 85.6% | – |
| CC(Cc1cccc(C(F)(F)F)c1)NCCOC(=O)c1ccccc1 (stereo not given) [Benfluorex hydrochloride] | 93.4% | – |
| CC(Cc1cccc(C(F)(F)F)c1)NCCOC(=O)c1ccccc1 (stereo not given) | 102% | – |
| COc1cc(-c2oc3c(O)c(OC4OC(COC(C)=O)C(O)C(O)C4OC4OC(C)C(O)C(O)C4O)cc(O)c3c(=O)c2O)ccc1O (stereo not given) [Haploside D] | – | 108 |
| CCCc1cc(C(N)=S)ccn1 | 111% | – |
| CCCc1cc(C(N)=S)ccn1 [Prothionamide] | 95.4 ± 7.5% | – |
| COc1ccccc1-c1oc2ccccc2c(=O)c1OC | – | 99.9 |
| CC(C)(C)NCC(O)COc1cccc2[nH]c(=O)[nH]c12 (racemic) | 102% | – |
| CC(=O)S[C@@H]1CC2=CC(=O)CC[C@]2(C)[C@H]2CC[C@@]3(C)[C@@H](CC[C@@]34CCC(=O)O4)[C@H]12 | 106% | – |
| CC(=O)S[C@@H]1CC2=CC(=O)CC[C@]2(C)[C@H]2CC[C@@]3(C)[C@@H](CC[C@@]34CCC(=O)O4)[C@H]12 [Spironolactone] | 104 ± 12% | – |
| NNCCc1ccccc1 | 106% and 101% | – |
| NNCCc1ccccc1 [Phenelzine sulfate] | 105 ± 22% | – |
| NC1(C(=O)O)CCCCC1 [1-Amino-1-cyclohexanecarboxylic acid hydrochloride] | 105% | – |
| C=C1CC[C@H](O)C/C1=C/C=C1\CCC[C@]2(C)[C@@H]([C@H](C)CCCC(C)C)CC[C@@H]12 [Cholecalciferol] | 140% | – |
| C=C1CC[C@H](O)C/C1=C/C=C1\CCC[C@]2(C)[C@@H]([C@H](C)CCCC(C)C)CC[C@@H]12 | 103% | – |
| CN1CCN(CC/C=C2/c3ccccc3Sc3ccc(S(=O)(=O)N(C)C)cc32)CC1 | 98.2% | – |
| CC(C)(CO)[C@@H](O)C(=O)NCCC(=O)NCCSSCCNC(=O)CCNC(=O)[C@H](O)C(C)(C)CO | 110% | – |
| CC(C)(C=O)Cc1cc(C(C)(C)C)c(O)c(C(C)(C)C)c1 | 113% | – |
| C[C@H]1O[C@H](O[C@H]2[C@H](O)[C@@H](O)[C@@H](O[C@H]3[C@H](O)[C@@H](O)C(O)O[C@@H]3CO)O[C@@H]2CO)[C@H](O)[C@@H](O)[C@@H]1N[C@H]1C=C(CO)[C@@H](O)[C@H](O)[C@H]1O (stereo not given in full) [Acarbose] | 110% | – |
| C[C@H]1O[C@H](O[C@H]2[C@H](O)[C@@H](O)[C@@H](O[C@H]3[C@H](O)[C@@H](O)C(O)O[C@@H]3CO)O[C@@H]2CO)[C@H](O)[C@@H](O)[C@@H]1N[C@H]1C=C(CO)[C@@H](O)[C@H](O)[C@H]1O (stereo not given in full) | 98.8 ± 6.4% | – |

A section taken from the entries so far:

| Compound | cell viability (compound concentration: 3 uM) | cell viability [1] [%] |
| --- | --- | --- |
| CC(C)c1c(C(=O)Nc2ccccc2)c(-c2ccccc2)c(-c2ccc(F)cc2)n1CC[C@@H](O)C[C@@H](O)CC(=O)O | 121% | – |
| Cc1ncc(C[n+]2csc(CCO)c2C)c(N)n1 | 106% | – |
| C=CC(N)CCC(=O)O (stereo not given) | 102% | – |
| C=CC(N)CCC(=O)O (stereo not given) [Vigabatrin] | 88.2% | – |
